# These are yes or no findings as the source states them, for the method shown.
# B1: hu55L17κ (antibody, human IgG1, V domains shown)
# VH: QVQLVQSGAEVKKPGSSVKVSCRPPGGTLSNYAINWVRQAPGQGLEWMGGIVPMFSTTKYAQKFQGRLTLTADLSTITAHMELNRLTSEDTAVYYCARDLPAPYCSADLCYKVLDAFDVWGQGTLVTVSS
# VL: EIVLTQSPSSLSASVGDRVTITCQASQDISNYLNWYQQKPGKAPKLLIYKASSLESGVPSRFSGSGSGTEFTLTITRLQPDDFATYYCQQYEEYLRYSFGQGTKLEIK
# notes: also called 55L17 IgG antibody
# B2: hu55C11λ (antibody, human IgG1, V domains shown)
# VH: QVQLVESGGGLVKPGGSLRLSCAASGFTFSSHSMNWVRQTPGKGLEWVSSINTISTFIYYADSVKGRFTVSRDNARNSLFLQMNTLTADDTGVYYCARERGNRFCDGDCYSGTTFDYWGPGTLVTVSS
# VL: QPVLTQPPSVSVAPGRTSRITCEENNIGTKNVHWYQQKPGQAPLLVVHDDSDRPSGIPERFSGSNSGNTATLTISRVEAGDEADYYCQVWDSDNDRWLFGGGTRLTVLG
# notes: also called 55c11 IgG antibody
# B3: hu55G4λ (antibody, human IgG1, V domains shown)
# VH: EVQLVQSGGGAVQPGRSLRLSCAVSGFTFSNFPMHWVRQAPGRGLEWVAVISHDETMIYYLDSVKGRFTISRDNSRNIVYLQMHSLRVEDTAVYYCARDTGVCSGGYCYTPRYFDQWGQGTLVTVSS
# VL: QPVLTQPPSVSVAPGKTADITCGGDNIGRKHVHWYRQRPSQAPLLVIYDDSDRPSGIPERLSGINSGNTATLTISGVEVGDEADYYCQVWDNDAEQWVFGGGTKLTV
# notes: also called 55G4 IgG antibody; 55LG4
# Biological target: streptavidin (UniProt P22629)
# Experiment: Western blot; huMAb as primary antibody, goat anti-human IgG-HRP for detection
row,Binder,binding
1,B1,no binding (tested: primary antibody 1:100)
2,B2,no binding (tested: primary antibody 1:100)
3,B3,no binding (tested: primary antibody 1:100)
